The whole screen tested about 390,000 compounds, of which about 910 (0.23%) were called active. Inconclusive means that the source gave no clear call. Such entries were picked first, then a sample of the others. Calls come from the whole dose curve; as a rule, active = well fitted inhibition curve with a large enough effect; inconclusive = small, poorly fitted or top-dose-only effect; inactive = no such curve, though single readings can be large or run the other way. Potencies of inconclusive entries are doubtful fits and often do not repeat.
Target: Ubiquitin carboxyl-terminal hydrolase 1 (Homo sapiens) (UniProt O94782)
Assay: Inhibitors of USP1/UAF1: Primary Screen; note: nearly all actives have a fitted effect of over 60% in size
Conditions: recombinant USP1/UAF1, Ub-Rhodamine cleavage fluorescence; series mostly up to 57.1 µM
How it was run: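 1 nM enzyme complex + cpd, 15 min RT; start with Ub-Rho 150nM final; kinetic fluorescence ex 480/em 540, 6 reads q60 s. Buffer 50mM HEPES pH 7.8, 0.5mM EDTA, 0.1 mg/ml BSA, 1mM TCEP, 0.01% Tween-20.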
Potency is the fitted concentration of half-maximal effect.

Protein sequences, listed by entry. Tags and fused reporters are not part of them. Lines headed by an entry give the natural chain unless they say otherwise; changes in a name come on top.
UniProt O94782: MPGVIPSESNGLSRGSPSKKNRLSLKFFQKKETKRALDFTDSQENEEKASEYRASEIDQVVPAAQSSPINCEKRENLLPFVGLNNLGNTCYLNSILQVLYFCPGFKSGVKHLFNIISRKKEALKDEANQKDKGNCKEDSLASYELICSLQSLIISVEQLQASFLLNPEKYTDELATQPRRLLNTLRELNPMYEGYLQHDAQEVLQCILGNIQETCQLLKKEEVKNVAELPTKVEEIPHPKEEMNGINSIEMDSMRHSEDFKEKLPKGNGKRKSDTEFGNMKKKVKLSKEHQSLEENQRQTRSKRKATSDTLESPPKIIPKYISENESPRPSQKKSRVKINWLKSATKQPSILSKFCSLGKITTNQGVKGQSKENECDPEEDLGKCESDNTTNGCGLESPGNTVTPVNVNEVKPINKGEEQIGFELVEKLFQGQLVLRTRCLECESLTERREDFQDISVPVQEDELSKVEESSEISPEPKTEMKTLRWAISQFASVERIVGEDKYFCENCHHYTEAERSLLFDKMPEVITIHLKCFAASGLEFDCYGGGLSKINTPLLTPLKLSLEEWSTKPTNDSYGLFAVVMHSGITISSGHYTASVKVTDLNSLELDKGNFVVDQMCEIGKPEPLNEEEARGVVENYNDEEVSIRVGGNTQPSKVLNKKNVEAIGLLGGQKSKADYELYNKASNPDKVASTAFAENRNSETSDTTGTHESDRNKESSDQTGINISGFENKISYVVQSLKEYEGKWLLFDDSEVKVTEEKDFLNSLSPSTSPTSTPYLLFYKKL

Potency, inactive:
Cc1[nH]nc(-c2ccc(O)cc2O)c1-c1ccc(Cl)cc1
Nc1cccn2c(-c3ccc(Cl)c(Cl)c3)cnc12
CCOc1cc(CNCCc2ccc(S(N)(=O)=O)cc2)ccc1OCc1ccccc1
CC1CC(C)CN(C(=O)COC(=O)Cc2ccc(Br)cc2)C1 (centres undefined)
O=C1CCN(CCc2ccccc2)CCN1CCSc1ccccc1
Cc1coc2cc3oc(=O)c4c(c3cc12)CCCC4
Cc1ccc(CNC(=O)c2cn(C3CCCCC3)c(=O)c3c2c2ccccc2n3C)o1
O=C(c1ccc(Br)c(S(=O)(=O)N2CCCCC2)c1)N1CCCCC1
O=C(NC1CC1)c1cccc(NC(=O)C2CCCCC2)c1
Oc1ccc(N2CCN(C(=S)NCCc3ccccc3)CC2)cc1
O=C1Nc2ccccc2/C1=C\C(=O)c1ccccc1
COc1ccc(C(=O)CC2(O)C(=O)N(Cc3ccccc3)c3ccc(Br)cc32)cc1 (centres undefined)
CCOc1ccc(NC(=O)NCCN2CCN(c3cc(Cl)ccc3C)CC2)cc1
COc1cc(CNc2ccc(O)cc2)cc(Br)c1OCc1ccccc1
Cc1cc(O)c2c(C)c(CC(=O)NCc3ccccc3Cl)c(=O)oc2c1
COc1cccc(C(c2nnnn2CCc2ccccc2)N2CCN(c3ccccc3)CC2)c1OC (centres undefined)
O=C(NCC(=O)N1CCN(c2ccccc2)CC1)c1ccc(Cl)cc1
O=C(NCCSc1c[nH]c2ccccc12)c1ccc(Cl)cc1
Cc1ccc(OC(=O)CSc2nnc(-c3cccs3)o2)cc1
O=C(CSc1ccc2c(c1)OCCO2)Nc1ccccc1
Cc1ccc(CN(Cc2ccc(C)o2)C(=S)NCC(=O)O)cc1
Cc1ccc(NC(=O)Cc2csc(C)n2)c(C)c1
COc1ccc(C)cc1-n1nnc(-c2nc(-c3ccccc3Cl)no2)c1N
COc1cc2nc(C3CCC3)nc(N3CCN(c4ccccn4)CC3)c2cc1OC
Cc1cccc(C(=O)N2CCc3cc(CNS(=O)(=O)c4ccc(Cl)s4)ccc32)c1
O=C(CN1C(=O)NC2(CCCC2)C1=O)NCCc1ccc(Cl)cc1Cl

An excerpt from the list above:
Potency, inactive:
Cc1coc2cc3oc(=O)c4c(c3cc12)CCCC4
Cc1ccc(CNC(=O)c2cn(C3CCCCC3)c(=O)c3c2c2ccccc2n3C)o1
O=C(c1ccc(Br)c(S(=O)(=O)N2CCCCC2)c1)N1CCCCC1
O=C(NC1CC1)c1cccc(NC(=O)C2CCCCC2)c1

Two entries drawn at random from those above, as already listed:
Potency, inactive:
Cc1coc2cc3oc(=O)c4c(c3cc12)CCCC4
CCOc1cc(CNCCc2ccc(S(N)(=O)=O)cc2)ccc1OCc1ccccc1

Next part:

Potency, active:
O=C1C(Cl)=C(N2CCC(C(=O)O)CC2)C(=O)c2ccccc21 25.1 µM
O=C(/C=C/c1ccc(O)cc1)c1ccc(NC2=C(N3CCCCC3)C(=O)c3ccccc3C2=O)cc1 15.8 µM
O=C1/C(=C/c2ccco2)Oc2c1ccc(O)c2CN1CCCCC1 31.6 µM

Potency, inconclusive:
Cc1ccc(CN2C(=O)C(CC(C)C)Nc3ncnc(N4CCOCC4)c32)cc1 (centres undefined) 7.94 µM [inhibitor, partial curve]
CCOC(=O)CSc1nc2ccc(NC(=O)c3ccc(Cl)cc3)cc2s1 6.31 µM [inhibitor, full curve]
Nc1c(C(=O)Nc2cccc(F)c2)nnn1-c1ccc2c(c1)OCCO2 50.1 µM [inhibitor, single point]
Cn1c2ccccc2c(=O)c2ccc(NCCc3cccs3)cc21 39.8 µM [inhibitor, partial curve]
O=C(NCc1ccc(F)cc1)c1ccc(NC(=O)C2CCCO2)cc1 (centres undefined) 0.708 µM [inhibitor, full curve]
Cc1ccc(CNC(=O)CSc2c(C)cnc3c2c(=O)n(C)c(=O)n3C)cc1 0.112 µM [inhibitor, full curve, poor fit]
Cc1cc(N2CCN(c3ccccc3)CC2)nc(-c2ccccc2O)n1 28.2 µM [inhibitor, partial curve]
C#CCOCCOCCOCCNc1nc(N2CCN(C(=O)[C@H]([C@@H](C)CC)n3cc(CCCN=C(N)N)nn3)CC2)nc(N2CCN(C(=O)[C@H](C)n3cc(CCCN=C(N)N)nn3)CC2)n1 0.112 µM [inhibitor, full curve, poor fit]
CCC1CN(C(=O)N2CCC(C(=O)NCCc3ccc(OC)c(OC)c3)CC2)c2ccccc2O1 (centres undefined) 50.1 µM [inhibitor, partial curve, poor fit]
COc1ccc(Cl)cc1C(=O)OCC(=O)Nc1sccc1C(N)=O 7.08 µM [inhibitor, partial curve, poor fit]
Cn1c(-c2c(N)n(CCCc3ccccc3)c3nc4ccccc4nc23)nc2ccccc21 8.91 µM [inhibitor, partial curve]
Cc1cccc(S(=O)(=O)Nc2cccc3c2C(=O)c2ccccc2-3)c1 8.91 µM [inhibitor, partial curve]
CCN(CC)CCCN1C=C2C(=O)C(C)(OC(=O)C3CCCC3)C(=O)C=C2C=C1c1ccsc1 (centres undefined) 3.98 µM [inhibitor, full curve, poor fit]
CCC/C=C/c1ccc(CN2C(CC(C)C)C(=O)N(Cc3cn(CCC4OCCO4)nn3)CCS2(=O)=O)cc1 (centres undefined) 1 µM [inhibitor, full curve]
COc1ccc(C(O)(CCC(C)C)C(CN2CCOCC2)c2ccccc2)cc1 (centres undefined) 70.8 µM [inhibitor, partial curve, poor fit]
COc1ccc(-c2nn(C)c3sc(C(=O)NCCN(C)C)cc23)cc1OC 7.94 µM [inhibitor, full curve]
COc1ccc(CNC(=O)CN2N=C(c3ccc(Cl)cc3)CCC2=O)cc1 0.708 µM [inhibitor, full curve, poor fit]
CCC1CCCCN1CCCNC(=O)c1ccc2c(c1)c(C)c(C)n2CC (centres undefined) 39.8 µM [inhibitor, partial curve, poor fit]
COc1cc(/C=C2/C(=O)NN(c3ccccc3)C2=O)cc(Br)c1O 28.2 µM [inhibitor, partial curve]
Cc1ccc(N2CC(NC(=O)CCCc3ccccc3)CC2=O)cc1 (centres undefined) 22.4 µM [inhibitor, single point]
CCC(=O)Nc1ccc(CC)cc1-c1nc2ccccc2n(Cc2ccccc2)c1=O 0.224 µM [inhibitor, full curve, poor fit]
O=C(Cn1c(-c2cccs2)cc2cc(Cl)ccc21)N1CCN(c2ccccc2F)CC1 4.47 µM [inhibitor, full curve, poor fit]
CCOC(=O)c1c(CSC(=N)N)n(C)c2cc(Br)c(OC(C)=O)cc12 39.8 µM [inhibitor, single point]
CCc1nc(SCC(=O)Nc2nc3c(s2)CCCC3)c2ccccc2n1 50.1 µM [inhibitor, partial curve, poor fit]
CCOC(=O)c1c(C)[nH]c(C(=O)CSc2nccc(C)n2)c1C 6.31 µM [inhibitor, single point]
COc1ccc(F)cc1S(=O)(=O)Nc1cccc(-c2ccc(N3CCCCCC3)nn2)c1 7.08 µM [inhibitor, full curve, poor fit]
CC1CCC(NC(=O)c2cc3c(Cl)nc4ccccc4c3s2)CC1 (centres undefined) 6.31 µM [inhibitor, partial curve]
CC(=O)c1ccc(N2CCN(C(=O)c3ccc(S(=O)(=O)NCc4ccco4)cc3)CC2)cc1 56.2 µM [inhibitor, partial curve, poor fit]
Cc1cccc(NC(=O)CSc2c(C)cnc3c2c(=O)n(C)c(=O)n3C)c1C 39.8 µM [inhibitor, partial curve]
CCC1CCCCN1CC(=O)Nc1cc(C)c2c(=O)oc3ccccc3c2n1 (centres undefined) 2.82 µM [inhibitor, full curve]
COc1ccccc1CNC(=O)c1ccc2c(=O)n3c(nc2c1)CCCCC3 44.7 µM [inhibitor, partial curve, poor fit]
Cc1ccc(S(=O)(=O)c2c(Nc3cc(F)ccc3F)sc(C(=O)c3ccc(F)cc3)c2N)cc1 0.0316 µM [inhibitor, full curve, poor fit]
CCOCC(=O)Nc1cc(S(=O)(=O)N2CCOCC2)ccc1N1CCCCC1 35.5 µM [inhibitor, partial curve, poor fit]
O=C(NCc1ccccc1)c1ccc(CSc2nc3cccnc3n2Cc2cccc(F)c2)cc1 5.01 µM [inhibitor, partial curve]
COc1ccc(S(=O)(=O)N2CCOC23CCN(S(=O)(=O)c2ccc(F)cc2)CC3)cc1 56.2 µM [inhibitor, partial curve, poor fit]
CC(C)(C)OC(=O)N1CCC(NC(=O)c2[nH]cnc2C(=O)Nc2ccccc2F)CC1 14.1 µM [inhibitor, partial curve, poor fit]
CCN(CC)c1ccc(/C=N/OCC(=O)Nc2cccc(C)c2)cc1 31.6 µM [inhibitor, single point]
COc1ccc(S(=O)(=O)NCC(c2ccco2)S(=O)(=O)c2cccs2)cc1C (centres undefined) 0.282 µM [inhibitor, full curve, poor fit]
COc1ccc(/C=N/Nc2cc(C)nc(N3CCOCC3)n2)cc1OC 79.4 µM [inhibitor, partial curve, poor fit]
COCCNC(=O)CCCn1c(=O)c2cc(OC)c(OC)cc2n(CC(=O)NCCC2=CCCCC2)c1=O 44.7 µM [inhibitor, partial curve, poor fit]

— PubChem BioAssay AID743255 (National Center for Advancing Translational Sciences (NCATS), 2014)
